{
  "source": "PubChem BioAssay AID248",
  "about": "(DTP/NCI, 2004)",
  "system": "L1210 leukemia ip in BDF1 mice, survival T/C",
  "experiment": "NCI In Vivo Anticancer Drug Screen. Data for tumor model L1210 Leukemia (intraperitoneal) in B6D2F1 (BDF1) mice",
  "conditions": "T/C endpoint: mean survival time, higher T/C = longer survival",
  "key": {"[1]": {"conditions": "dose: 100.0 mg/kg/injection, schedule: Q04DX003 (ip), vehicle: saline"}, "[2]": {"conditions": "dose: 200.0 mg/kg/injection, schedule: Q04DX003 (ip), vehicle: saline"}, "[3]": {"conditions": "dose: 400.0 mg/kg/injection, schedule: Q04DX003 (ip), vehicle: saline"}, "[4]": {"conditions": "dose: 400.0 mg/kg/injection, schedule: Q01DX009 (ip), vehicle: carboxymethylcellulose (CMC)"}, "[5]": {"conditions": "dose: 100.0 mg/kg/injection, schedule: Q04DX002 (ip), vehicle: Klucel (hydroxypropylcellulose) (HPC)"}, "[6]": {"conditions": "dose: 400.0 mg/kg/injection, schedule: Q04DX003 (ip), vehicle: Klucel (hydroxypropylcellulose) (HPC)"}, "[7]": {"conditions": "dose: 200.0 mg/kg/injection, schedule: Q01DX009 (ip), vehicle: Klucel (hydroxypropylcellulose) (HPC)"}},
  "note": "The list does not hold the whole screen: it is rich in T/C values a quarter to a half above the control, in often repeated tests (any T/C) and in doses without a T/C. Other doses and runs of a compound stand elsewhere. T/C: endpoint of the treated group in % of that of the vehicle group. Some entries give survivors of the animals treated and no T/C: the source files T/C as zero there, which appears to mark a toxic dose or a test without result, not a measured value. Some survivor counts are full or nearly so, which does not show that the dose was tolerated: survival well below the control is almost never listed, so the zero probably covers shortened survival too. Survivors were counted at the toxicity check, usually on the fifth day, unless a day is given; later deaths do not show. Schedules are NCI's codes, read here as Q, the interval in days (D) or hours (H), X, the number of doses. Some entries hold several experiments; the values are given in rising order. Some schedule codes hold Z or #, which are not explained here.",
  "data": [
    {"molecule": "c1cnc2cc3oc4ccccc4c3cc2c1", "values": [
      {"measurement": "survivor count", "setting": "[1]", "result": "3 of 6"},
      {"measurement": "survivor count", "setting": "[2]", "result": "0 of 6"},
      {"measurement": "survivor count", "setting": "[3]", "result": "0 of 6"}
    ]},
    {"molecule": "OCC1OC(n2ncc3c(Cl)ccnc32)C(O)C1O", "note": "(stereo unspecified)", "values": [
      {"measurement": "survivor count", "setting": "dose: 100.0 mg/kg/injection, schedule: Q01DX005 (ip), vehicle: other", "result": "2 of 3"},
      {"measurement": "survivor count", "setting": "dose: 200.0 mg/kg/injection, schedule: Q01DX005 (ip), vehicle: other", "result": "1 of 3"}
    ]},
    {"molecule": "CN(CCO)Cc1ccc(Cl)cc1", "values": [
      {"measurement": "survivor count", "setting": "dose: 300.0 mg/kg/injection, schedule: Q01DX015 (ip), vehicle: saline", "result": "1 of 6"}
    ]},
    {"molecule": "COC1C(OC(C)=O)CC(=O)OC(C)C/C=C/C=C\\C(O)C(C)CC(CC=O)C1OC1OC(C)C(OC2CC(C)(O)C(OC(=O)CC(C)C)C(C)O2)C(N(C)C)C1O", "note": "(stereo unspecified)", "values": [
      {"measurement": "survivor count", "setting": "dose: 200.0 mg/kg/injection, schedule: Q01DX001 (ip), vehicle: saline", "result": "6 of 6"}
    ]},
    {"molecule": "CC(=O)CC(=O)Nc1cccc(O)c1", "values": [
      {"measurement": "survivor count", "setting": "dose: 100.0 mg/kg/injection, schedule: Q01DX009 (ip), vehicle: Klucel (hydroxypropylcellulose) (HPC)", "result": "6 of 6"}
    ]},
    {"molecule": "CS(=O)(=O)CCCl", "values": [
      {"measurement": "survivor count", "setting": "[4]", "result": "0 of 3 and 0 of 6"}
    ]},
    {"molecule": "CC(Cl)CN1Cc2ccccc2CCc2ccccc2C1", "note": "(stereo unspecified)", "values": [
      {"measurement": "survivor count", "setting": "[5]", "result": "1 of 3"}
    ]},
    {"molecule": "Nc1snc2ncccc12", "values": [
      {"measurement": "survivor count", "setting": "[6]", "result": "0 of 6"}
    ]},
    {"molecule": "CC[P+]1(c2ccccc2)CCCc2ccc3ccccc3c21", "note": "(stereo unspecified)", "values": [
      {"measurement": "survivor count", "setting": "dose: 12.5 mg/kg/injection, schedule: Q01DX009 (ip), vehicle: saline with Tween-80", "result": "3 of 6"},
      {"measurement": "survivor count", "setting": "dose: 25.0 mg/kg/injection, schedule: Q01DX009 (ip), vehicle: saline with Tween-80", "result": "0 of 6"},
      {"measurement": "survivor count", "setting": "[1]", "result": "0 of 6"},
      {"measurement": "survivor count", "setting": "[2]", "result": "0 of 6"},
      {"measurement": "survivor count", "setting": "[3]", "result": "0 of 6"}
    ]},
    {"molecule": "COC(=O)C1(C)CCCC2(C)C3CCC4(C)CC3(CCC12)CC4S(=O)(=O)c1ccc(C)cc1", "note": "(stereo unspecified)", "values": [
      {"measurement": "survivor count", "setting": "[5]", "result": "3 of 3"}
    ]},
    {"molecule": "O=S1(=O)C=C2CCCCC21", "note": "(stereo unspecified)", "values": [
      {"measurement": "survivor count", "setting": "dose: 150.0 mg/kg/injection, schedule: Q01DX001 (ip), vehicle: carboxymethylcellulose (CMC)", "result": "0 of 6"},
      {"measurement": "survivor count", "setting": "dose: 300.0 mg/kg/injection, schedule: Q01DX001 (ip), vehicle: carboxymethylcellulose (CMC)", "result": "0 of 6"}
    ]},
    {"molecule": "O=c1[nH]cnc2ncccc12", "values": [
      {"measurement": "survivor count", "setting": "dose: 400.0 mg/kg/injection, schedule: Q01DX001 (ip), vehicle: saline", "result": "0 of 6"}
    ]},
    {"molecule": "Nc1nc2c(ncn2-c2ccc(NS(=O)(=O)c3cccc(S(=O)(=O)F)c3)cc2)c(=O)[nH]1", "values": [
      {"measurement": "survivor count", "setting": "dose: 150.0 mg/kg/injection, schedule: Q01DX001 (ip), vehicle: Klucel (hydroxypropylcellulose) (HPC)", "result": "6 of 6"}
    ]},
    {"molecule": "O=C(Nc1ccc(Cl)cc1)Nc1ccc(Cl)cc1", "values": [
      {"measurement": "survivor count", "setting": "dose: 400.0 mg/kg/injection, schedule: Q04DX003 (ip), vehicle: saline with Tween-80", "result": "6 of 6"}
    ]},
    {"molecule": "CCCCCCCCCCCCCCSCCO", "values": [
      {"measurement": "survivor count", "setting": "[4]", "result": "1 of 6"}
    ]},
    {"molecule": "Nc1cc(Cl)cc2c1-c1c(Cl)cc(Cl)cc1C2", "values": [
      {"measurement": "survivor count", "setting": "[7]", "result": "1 of 6"}
    ]},
    {"molecule": "OC1COC(c2ccco2)OC1", "note": "(stereo unspecified) (tested in a mixture with another compound)", "values": [
      {"measurement": "survivor count", "setting": "dose: 400.0 mg/kg/injection, schedule: Q01DX009 (ip), vehicle: Klucel (hydroxypropylcellulose) (HPC)", "result": "3 of 6"}
    ]},
    {"molecule": "CCN(CC)C(=Nc1ccc(NC(=O)c2ccc(C(=O)Nc3ccc(N=C(c4ccccc4)N(CC)CC)cc3)cc2)cc1)c1ccccc1", "values": [
      {"measurement": "survivor count", "setting": "dose: 240.0 mg/kg/injection, schedule: Q01DX Z (ip), vehicle: water", "result": "3 of 6"},
      {"measurement": "survivor count", "setting": "dose: 480.0 mg/kg/injection, schedule: Q01DX Z (ip), vehicle: water", "result": "1 of 6"}
    ]},
    {"molecule": "CC1(C)N=C(N)N=C(N)N1c1ccc(OCCCOc2ccccc2)c(Cl)c1", "values": [
      {"measurement": "survivor count", "setting": "[7]", "result": "2 of 6"},
      {"measurement": "survivor count", "setting": "[6]", "result": "1 of 6"}
    ]},
    {"molecule": "CCOC(=O)c1cnc(SC)nc1Nc1cccc(Cl)c1", "values": [
      {"measurement": "survivor count", "setting": "[7]", "result": "6 of 6"}
    ]},
    {"molecule": "c1ccc2c[n+]3cc4ccccc4cc3cc2c1", "values": [
      {"measurement": "survivor count", "setting": "dose: 55.0 mg/kg/injection, schedule: Q01DX009 (ip), vehicle: saline", "result": "1 of 6"},
      {"measurement": "survivor count", "setting": "dose: 80.0 mg/kg/injection, schedule: Q01DX009 (ip), vehicle: saline", "result": "0 of 6"},
      {"measurement": "survivor count", "setting": "[1]", "result": "0 of 6"},
      {"measurement": "survivor count", "setting": "[2]", "result": "0 of 6"},
      {"measurement": "survivor count", "setting": "[3]", "result": "1 of 6"}
    ]},
    {"molecule": "CCC(=O)OC1(c2ccccc2)CCN(C/C=C/c2cccc3ccccc23)CC1", "values": [
      {"measurement": "survivor count", "setting": "dose: 400.0 mg/kg/injection, schedule: Q01DX001 (ip), vehicle: gum acacia", "result": "0 of 6"}
    ]},
    {"molecule": "CC1(C)N=C(N)N=C(N)N1c1ccc(CCCCc2ccc(S(=O)(=O)F)cc2)cc1", "values": [
      {"measurement": "survivor count", "setting": "dose: 200.0 mg/kg/injection, schedule: Q01DX009 (ip), vehicle: saline", "result": "0 of 6"},
      {"measurement": "survivor count", "setting": "dose: 400.0 mg/kg/injection, schedule: Q01DX009 (ip), vehicle: saline", "result": "0 of 6"}
    ]},
    {"molecule": "CCC(C)(C)c1ccc(OCCCCCCN2CCN(c3ccc(C)c(Cl)c3)CC2)cc1", "values": [
      {"measurement": "survivor count", "setting": "dose: 300.0 mg/kg/injection, schedule: Q01DX001 (ip), vehicle: saline", "result": "2 of 6"}
    ]},
    {"molecule": "O=CNC(CSC(c1ccccc1)c1ccccc1)C(=O)O", "note": "(stereo unspecified)", "values": [
      {"measurement": "survivor count", "setting": "dose: 300.0 mg/kg/injection, schedule: Q01DX001 (ip), vehicle: Klucel (hydroxypropylcellulose) (HPC)", "result": "3 of 6"}
    ]},
    {"molecule": "CCN(CC)c1cc[c]([Hg][O]C(C)=O)cc1", "values": [
      {"measurement": "survivor count", "setting": "dose: 25.0 mg/kg/injection, schedule: Q04DX003 (ip), vehicle: saline with Tween-80", "result": "0 of 6"},
      {"measurement": "survivor count", "setting": "dose: 100.0 mg/kg/injection, schedule: Q04DX002 (ip), vehicle: saline with Tween-80", "result": "0 of 3"},
      {"measurement": "survivor count", "setting": "dose: 200.0 mg/kg/injection, schedule: Q04DX002 (ip), vehicle: saline with Tween-80", "result": "0 of 3"},
      {"measurement": "survivor count", "setting": "dose: 400.0 mg/kg/injection, schedule: Q04DX002 (ip), vehicle: saline with Tween-80", "result": "0 of 3"}
    ]},
    {"molecule": "O=C(C[N+]12CN3CN(CN(C3)C1)C2)c1ccc(Cl)cc1", "values": [
      {"measurement": "survivor count", "setting": "dose: 219.0 mg/kg/injection, schedule: Q01DX Z (ip), vehicle: carboxymethylcellulose (CMC)", "result": "2 of 6"}
    ]},
    {"molecule": "CCC(C)N1C(=O)CCC1=O", "note": "(stereo unspecified)", "values": [
      {"measurement": "survivor count", "setting": "dose: 1200.0 mg/kg/injection, schedule: Q01DX001 (ip), vehicle: saline", "result": "0 of 4"}
    ]}
  ]
}
